According to patent US8252814B2, “Agents and crystals for improving excretory potency of urinary bladder” (priority 1998, dated 2012):

Test system: urinary bladder
Assay: Potentiation effect for rhythmic contraction of urinary bladder in guinea pig, Experimental Example 2
Type: in vivo, Hartley male guinea pigs
Settings: Cavia porcellus, iv, read-out: AUC200 (mg/kg, i.v.)
Method: Potentiation effect of the compounds disclosed in Reference Examples for rhythmic contraction of urinary bladder was examined using Hartley male guinea pigs. Hartley male guinea pigs (SLC) weighing about 300 g were anesthetized with urethane (1.2 g/kg, i.p.), held, and incised at the midline of abdomen to expose the bladder. The urethra was ligated, and a polyethylene tube (PE-50) was inserted into the bladder. The internal pressure of the bladder was measured with a blood pressure amplifier (Nippon Koden), and the data was collected on a personal computer through an A/D converter (MP-30, Biopac Systems). A proper amount of physiological saline was injected into the bladder through a cannula to induce rhythmic contraction of the to bladder. […]
The area (AUC) that is formed by a curve of the internal pressure of the bladder and a base line was calculated through analytical software (Studentlab pro 2.1.5, Biopac Systems) to evaluate the effect of the test compounds. […] From the dose-dependent curve of AUC, the dose at which AUC before drug administration was increased 2 times (AUC200) was calculated to determine potency of contraction-enhancing effect of the test compounds for the muscle of urinary bladder. In addition, the potency of contraction-enhancing effect of […] for the muscle of bladder was determined in the same manner as mentioned above.

COc1cc2c(cc1OC)C(=O)C(CC1CCN(Cc3ccccc3)CC1)C2 (stereo not shown) [compound 29]
ED (2-fold bladder contraction AUC): 0.16 mg/kg
